In publication PMC11447025:
No constants are given. Whether binding was seen depends on the method and setting. In cells and extracts the contact can be indirect. Binding can be weak; no strength is given. Tags and fused reporters may be left off the sequences shown.

Target: T1, CMTM6-HA (UniProt Q9NX76)
T1 sequence: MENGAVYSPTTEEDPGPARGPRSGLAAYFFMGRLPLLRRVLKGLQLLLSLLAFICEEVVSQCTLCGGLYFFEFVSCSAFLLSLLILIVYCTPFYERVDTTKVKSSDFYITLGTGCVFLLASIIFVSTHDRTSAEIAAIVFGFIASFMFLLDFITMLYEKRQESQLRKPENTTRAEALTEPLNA
Assay: co-IP; HCT116 cells coexpressing CMTM6-HA and Rab11-FLAG; lysis buffer with 0.5% NP-40; anti-HA (12CA5) antibody and Protein G Sepharose beads pull down CMTM6-HA; WB for Glut1 and Rab11-FLAG

## Rab11-FLAG
  binding: binds
